Results as given in paper PMC10739811.
These are yes or no findings as the source states them, for the method shown. Binding seen in cells or lysates may run through a third protein. Some results given as binding are weak or reduced against the parent protein; the word gives no strength.

Sequences of proteins named here, by UniProt entry; tags and fusion partners are left off. Residues count along the entry.
UniProt P97302: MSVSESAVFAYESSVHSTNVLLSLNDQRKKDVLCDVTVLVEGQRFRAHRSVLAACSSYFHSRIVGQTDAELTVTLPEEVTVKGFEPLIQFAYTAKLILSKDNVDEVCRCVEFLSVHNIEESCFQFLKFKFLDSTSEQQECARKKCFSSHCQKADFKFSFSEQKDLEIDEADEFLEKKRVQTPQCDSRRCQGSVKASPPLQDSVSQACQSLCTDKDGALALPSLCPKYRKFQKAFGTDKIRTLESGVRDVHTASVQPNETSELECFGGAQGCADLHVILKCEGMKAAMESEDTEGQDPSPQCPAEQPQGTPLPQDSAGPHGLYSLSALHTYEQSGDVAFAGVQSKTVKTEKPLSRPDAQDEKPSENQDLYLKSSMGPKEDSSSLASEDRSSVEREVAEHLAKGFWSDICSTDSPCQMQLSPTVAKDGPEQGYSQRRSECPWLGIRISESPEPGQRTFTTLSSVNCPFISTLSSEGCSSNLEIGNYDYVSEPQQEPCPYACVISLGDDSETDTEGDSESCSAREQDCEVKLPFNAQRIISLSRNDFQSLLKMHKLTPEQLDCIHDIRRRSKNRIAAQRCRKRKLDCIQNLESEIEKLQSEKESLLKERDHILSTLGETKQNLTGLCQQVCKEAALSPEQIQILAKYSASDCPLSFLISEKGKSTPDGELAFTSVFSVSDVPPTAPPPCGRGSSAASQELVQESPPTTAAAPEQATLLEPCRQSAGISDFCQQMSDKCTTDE
UniProt O14867: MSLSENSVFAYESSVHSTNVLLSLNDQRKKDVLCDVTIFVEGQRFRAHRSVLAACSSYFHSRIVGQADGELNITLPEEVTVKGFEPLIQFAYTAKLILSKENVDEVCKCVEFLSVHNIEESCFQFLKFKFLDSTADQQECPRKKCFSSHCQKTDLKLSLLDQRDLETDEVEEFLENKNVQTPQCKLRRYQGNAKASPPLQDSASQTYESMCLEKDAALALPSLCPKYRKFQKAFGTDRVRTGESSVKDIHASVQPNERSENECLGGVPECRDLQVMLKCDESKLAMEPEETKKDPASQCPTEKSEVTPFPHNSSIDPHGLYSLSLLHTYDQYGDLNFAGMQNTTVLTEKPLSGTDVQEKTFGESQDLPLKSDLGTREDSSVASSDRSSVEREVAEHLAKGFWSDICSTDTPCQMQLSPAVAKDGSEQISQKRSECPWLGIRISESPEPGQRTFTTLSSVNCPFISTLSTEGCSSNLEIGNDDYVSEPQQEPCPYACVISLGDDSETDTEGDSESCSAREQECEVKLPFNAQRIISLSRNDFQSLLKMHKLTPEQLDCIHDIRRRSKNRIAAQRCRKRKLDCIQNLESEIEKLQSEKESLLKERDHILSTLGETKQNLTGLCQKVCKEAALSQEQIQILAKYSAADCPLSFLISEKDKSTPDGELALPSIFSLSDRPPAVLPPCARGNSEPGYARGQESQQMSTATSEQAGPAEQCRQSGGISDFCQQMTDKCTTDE
UniProt O08586: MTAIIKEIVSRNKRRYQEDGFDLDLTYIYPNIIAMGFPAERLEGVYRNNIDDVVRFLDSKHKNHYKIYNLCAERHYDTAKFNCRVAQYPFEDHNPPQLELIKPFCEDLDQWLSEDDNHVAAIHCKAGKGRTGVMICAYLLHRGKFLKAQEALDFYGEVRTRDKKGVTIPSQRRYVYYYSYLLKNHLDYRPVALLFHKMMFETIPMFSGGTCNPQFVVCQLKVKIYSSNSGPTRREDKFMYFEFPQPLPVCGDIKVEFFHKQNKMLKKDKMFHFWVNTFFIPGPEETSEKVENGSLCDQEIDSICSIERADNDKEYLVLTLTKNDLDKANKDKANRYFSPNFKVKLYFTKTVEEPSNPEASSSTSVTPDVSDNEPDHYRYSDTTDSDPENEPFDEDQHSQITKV
UniProt P15208, residues 753-1372: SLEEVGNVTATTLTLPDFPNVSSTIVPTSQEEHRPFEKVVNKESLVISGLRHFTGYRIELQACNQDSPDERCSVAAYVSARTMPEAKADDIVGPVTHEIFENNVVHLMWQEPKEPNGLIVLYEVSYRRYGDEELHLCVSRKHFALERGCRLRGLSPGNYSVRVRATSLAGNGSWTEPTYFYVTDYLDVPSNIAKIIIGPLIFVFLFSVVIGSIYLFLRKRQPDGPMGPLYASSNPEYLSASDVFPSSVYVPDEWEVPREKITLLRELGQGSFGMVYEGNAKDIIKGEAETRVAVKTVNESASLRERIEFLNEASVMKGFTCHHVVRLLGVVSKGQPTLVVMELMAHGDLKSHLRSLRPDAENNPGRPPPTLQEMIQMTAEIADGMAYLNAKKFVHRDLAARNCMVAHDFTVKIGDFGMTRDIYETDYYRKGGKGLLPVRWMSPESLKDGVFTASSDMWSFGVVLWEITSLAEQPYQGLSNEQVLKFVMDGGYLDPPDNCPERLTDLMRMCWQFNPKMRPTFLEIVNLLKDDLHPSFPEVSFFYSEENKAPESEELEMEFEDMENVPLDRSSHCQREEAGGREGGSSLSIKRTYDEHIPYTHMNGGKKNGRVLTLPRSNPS
UniProt P06213, residues 763-1382: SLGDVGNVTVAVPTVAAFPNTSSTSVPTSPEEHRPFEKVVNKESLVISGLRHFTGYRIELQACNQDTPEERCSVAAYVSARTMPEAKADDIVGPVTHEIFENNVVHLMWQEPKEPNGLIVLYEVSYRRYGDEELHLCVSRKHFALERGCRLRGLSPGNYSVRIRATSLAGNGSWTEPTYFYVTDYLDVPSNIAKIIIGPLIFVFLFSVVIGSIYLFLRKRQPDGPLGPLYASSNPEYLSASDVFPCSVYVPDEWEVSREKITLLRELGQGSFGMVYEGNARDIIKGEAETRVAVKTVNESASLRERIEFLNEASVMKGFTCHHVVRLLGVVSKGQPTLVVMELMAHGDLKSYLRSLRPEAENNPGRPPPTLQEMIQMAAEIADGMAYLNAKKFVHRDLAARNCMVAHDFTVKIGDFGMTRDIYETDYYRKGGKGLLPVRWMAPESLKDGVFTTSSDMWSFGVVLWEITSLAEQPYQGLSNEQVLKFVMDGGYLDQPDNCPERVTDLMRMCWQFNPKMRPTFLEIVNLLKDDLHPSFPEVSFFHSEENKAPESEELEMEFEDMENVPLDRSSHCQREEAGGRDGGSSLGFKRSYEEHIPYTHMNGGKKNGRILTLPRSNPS

Assays:
[1] = biological target: BTB and CNC homology 1 (BACH1), endogenous mouse (mouse (endogenous in primary hepatocytes)) (UniProt P97302); test: co-IP; lysate of mouse primary hepatocytes precipitated with anti-BACH1 antibody or control mouse IgG; blots for IR-β, PTP1B, PTEN, PP2A and BACH1; endogenous proteins
[2] = biological target: T1, protein tyrosine phosphatase 1B (PTP1B), endogenous mouse (mouse (endogenous in primary hepatocytes and liver)) (UniProt P35821); test: co-IP; liver lysates of HFD-fed Bach1^LKO and Bach1^fl/fl mice, with or without insulin injected i.p. after fasting; precipitated with anti-PTP1B, blot for IR-β; endogenous proteins
T1 sequence: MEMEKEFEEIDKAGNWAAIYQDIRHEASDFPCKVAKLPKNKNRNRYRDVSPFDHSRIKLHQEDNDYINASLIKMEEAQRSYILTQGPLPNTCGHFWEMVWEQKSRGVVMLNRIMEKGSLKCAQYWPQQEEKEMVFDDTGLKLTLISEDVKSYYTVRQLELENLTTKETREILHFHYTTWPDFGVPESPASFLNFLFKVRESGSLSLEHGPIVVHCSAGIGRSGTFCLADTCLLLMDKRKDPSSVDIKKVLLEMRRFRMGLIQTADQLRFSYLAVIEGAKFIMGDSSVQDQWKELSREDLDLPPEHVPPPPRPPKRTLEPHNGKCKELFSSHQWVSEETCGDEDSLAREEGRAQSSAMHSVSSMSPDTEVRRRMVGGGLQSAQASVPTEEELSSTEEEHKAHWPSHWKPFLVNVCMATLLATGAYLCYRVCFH

[3] = biological target: Flag-tagged full-length human BACH1 (human) (UniProt O14867); test: co-IP; HEK293T cells co-transfected with PTP1B-HA or IR-β-GFP and Flag-tagged BACH1 (full or lacking the BTB domain); precipitated with anti-Flag, blot with anti-HA or anti-GFP
[4] = biological target: GST-tagged BACH1 protein (GST-BACH1) (not stated (human or mouse cDNA cloned)) (UniProt O14867); test: pull-down; GST-BACH1 on glutathione-Sepharose 4B incubated for 2 h at 4 °C with IR-β-GFP or PTP1B-HA from transfected HEK293T cells (lysate by the legend and results; 'purified' by the methods), three washes, blot; only the target purified

Substance	binding [1]	binding [2]	binding [3]	binding [4]
phosphatase and tensin homolog (PTEN), endogenous mouse (from UniProt O08586 1-403) (enzyme)	no binding			
insulin receptor β (IR-β), endogenous mouse (from UniProt P15208 753-1372)	binds	binds		
human IR-β-GFP (from UniProt P06213 763-1382) (receptor)			binds	binds
